Results reported in US20150126710A1 (APOGENIX, published 2015).
No constants are given. Whether binding was seen depends on the method and setting. Some binding calls cover weakened binding; strength is not graded here. For part of these data: Where a sequence is shown, tags or fusion partners need not be part of it.

Sequences of proteins named here, by UniProt entry; tags and fusion partners are left off. Residues count along the entry.
UniProt O14763, residues 54-182: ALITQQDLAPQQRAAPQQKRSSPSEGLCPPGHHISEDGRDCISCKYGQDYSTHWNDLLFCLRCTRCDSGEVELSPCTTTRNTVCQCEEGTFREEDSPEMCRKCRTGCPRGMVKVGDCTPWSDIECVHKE
UniProt Q92956, residues 37-202: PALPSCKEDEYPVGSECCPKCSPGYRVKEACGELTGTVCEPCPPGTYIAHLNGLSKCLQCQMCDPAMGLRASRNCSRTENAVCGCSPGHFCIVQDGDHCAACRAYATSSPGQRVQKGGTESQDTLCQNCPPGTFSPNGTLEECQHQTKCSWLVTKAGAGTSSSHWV

How the values were obtained:
[1] = biological target: TRAILR1mut-A-CCSPD (human); experiment: Streptactin-ELISA, supernatant immobilized, constant concentration of TRAIL-Receptor 2-Fc (FIG. 14B)
[2] = biological target: TRAILR2mut-A-CCSPD (human); experiment: as above
TRAILR2mut-ASPD (human) [3] = experiment: as above
TRAIL-A-CCSPD (human) = experiment: as above
TRAIL-D-SPD (human) = experiment: as above
TRAILR1mut-D-SPD (human) [4] = experiment: as above
TRAIL-ASPD (human) [5] = experiment: as above
[6] = biological target: TRAILR2mut-D-CCSPD (human); experiment: as above
[7] = biological target: TRAILR1mut-D-CCSPD (human); experiment: as above
TRAILR1mut-ASPD (human) [8] = experiment: as above
TRAIL-D-CCSPD (human) = experiment: as above
TRAILR2mut-D-SPD (human) = experiment: as above
TRAILR2mut-ASPD (human) [9] = experiment: Streptactin-ELISA, 1 microgram/ml purified trimeric ligand immobilized via Strep-tag II, TRAIL-Receptor 2-Fc (FIG. 15B)
TRAILR2mut-ASPD (human) [10] = experiment: Streptactin-ELISA, supernatant immobilized, varying concentrations of TRAIL-Receptor 2-Fc (FIG. 14D)
TRAIL-ASPD (human) [11] = experiment: as above
TRAILR1mut-ASPD (human) [12] = experiment: as above
LIGHT-ASPD (human) [13] = experiment: Streptactin-ELISA (legend of FIG. 6)
LIGHT-ASPD (human) [14] = experiment: Streptactin-ELISA, LIGHT-ASPD (0-10 microgram/ml) immobilized via Strep-tag II, 100 ng/ml HVEM-Fc
APRIL-ASPD (human) [15] = experiment: Streptactin-ELISA (legend of FIG. 34)
APRIL-ASPD (human) [16] = experiment: Streptactin-ELISA, APRIL-ASPD from HEK293 supernatant immobilized, varying concentrations of TACI-Fc, anti-human Fc peroxidase
TRAILR1mut-ASPD (human) [17] = experiment: Streptactin-ELISA, 1 microgram/ml purified trimeric ligand immobilized via Strep-tag II, TRAIL-Receptor 1-Fc (FIG. 15A)
[18] = biological target: TRAILR1mut-A-CCSPD (human); experiment: Streptactin-ELISA, supernatant immobilized, constant concentration of TRAIL-Receptor 1-Fc (FIG. 14A)
TRAILR1mut-D-SPD (human) [19] = experiment: as above
[20] = biological target: TRAILR1mut-D-CCSPD (human); experiment: as above
TRAILR1mut-ASPD (human) [21] = experiment: as above
TRAIL-ASPD (human) [22] = experiment: Streptactin-ELISA, supernatant immobilized, varying concentrations of TRAIL-Receptor 1-Fc (FIG. 14C)
TRAILR1mut-ASPD (human) [23] = experiment: as above

Measured: binding

TRAIL-Receptor 2-Fc (from UniProt O14763 54-182) (Fc fusion)
binds: [1] | [2] | TRAILR2mut-ASPD (human) [3] | TRAIL-A-CCSPD (human) | TRAIL-D-SPD (human) | TRAILR1mut-D-SPD (human) [4] | TRAIL-ASPD (human) [5] | [6] | [7] | TRAILR1mut-ASPD (human) [8] | TRAIL-D-CCSPD (human) | TRAILR2mut-D-SPD (human) | TRAILR2mut-ASPD (human) [9] | TRAILR2mut-ASPD (human) [10] | TRAIL-ASPD (human) [11] | TRAILR1mut-ASPD (human) [12]

HVEM-Fc (from UniProt Q92956 37-202) (Fc fusion)
binds: LIGHT-ASPD (human) [13] | LIGHT-ASPD (human) [14]

B1: TACI-Fc (Fc fusion, UniProt O14836 2-166, looked up, not shown: a dimerising Fc or GST)
chain: SGLGRSRRGGRSRVDQEERFPQGLWTGVAMRSCPEEQYWDPLLGTCMSCKTICNHQSQRTCAAFCRSLSCRKEQGKFYDHLLRDCISCASICGQHPKQCAYFCENKLRSPVNLPPELRRQRSGEVENNSDNSGRYQGLEHRGSEASPALPGLKLSADQVALVYST
binds: APRIL-ASPD (human) [15] | APRIL-ASPD (human) [16]

B2: TRAIL-Receptor 1-Fc (Fc fusion, UniProt O00220 109-239, looked up, not shown: a dimerising Fc or GST)
chain: ATIKLHDQSIGTQQWEHSPLGELCPPGSHRSEHPGACNRCTEGVGYTNASNNLFACLPCTACKSDEEERSPCTTTRNTACQCKPGTFRNDNSAEMCRKCSRGCPRGMVKVKDCTPWSDIECVHKESGNGHN
binds: TRAILR1mut-ASPD (human) [17] | [18] | TRAILR1mut-D-SPD (human) [19] | [20] | TRAILR1mut-ASPD (human) [21] | TRAIL-ASPD (human) [22] | TRAILR1mut-ASPD (human) [23]
